Assay results taken from US20130310442.

Amino acid sequences for entries named in this document (tags omitted). A change or cut given only in a name is not applied to a line headed by its entry.
UniProt P48061: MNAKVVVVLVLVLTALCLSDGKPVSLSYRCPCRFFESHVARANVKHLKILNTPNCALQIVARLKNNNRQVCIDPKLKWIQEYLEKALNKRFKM

Target: human SDF-1alpha (CXCL12) (Homo sapiens) (UniProt P48061)
Test: activity in cells
Conditions: L-RNA, 5'-40 kDa PEG, purified recombinant protein, mirror-image nucleic acid; for IC50: variant of 193-G2-001 Spiegelmer

Sequence | functional effect of the aptamer (did not reverse SDF-1-modulated Jurkat adhesion, variant of NOX-A12 (193-G2-012-5'-PEG), dose not given here) | IC50 (CXCR7 beta-arrestin complementation in CHO, 10 nM SDF-1) [nM] | IC50 (Jurkat chemotaxis, 0.3 nM SDF-1) [nM]
CGCAUGGACUGAUCCUAGUCGGUUAUGUAGAUCUAGUGUGGUGCG [revNOX-A12] | not active |  | 
GCGUGGUGUGAUCUAGAUGUAUUGGCUGAUCCUAGUCAGGUACGC [NOX-A12 (193-G2-012-5'-PEG)] |  | 5.4 | 0.2

Construct, isoform or probe ends are uncertain for at least one entry. Negatives hold for the conditions tested.
